# Measurements reported in PubChem BioAssay AID504793 (Drosophila RNAi Screening Center, 2011).
# Test: 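Knock-downs allowing continued mitosis even though DNA is damaged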 (primary screen)
# System: Drosophila S2R+ cells
# Reagents: long dsRNA against Drosophila genes, about 0.25 µg dsRNA per well
# Time to read-out: 4 days of dsRNA, then 4 hours of drug before read-out
# Treatment: doxorubicin 0.5 µM for 4 hours to cause double-strand breaks, in cells also given a low, harmless dose of dsRNA against nbs to sensitise the assay
# Measurement: 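Mitotic index as the number of phospho-histone H3-positive cells in each well following doxorubicin, given as raw counts without normalisation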
# Reading the numbers: mitotic cells: higher = more cells in mitosis, weaker G2 arrest
# Call rule: 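a call needs confirmation in secondary tests, with other dsRNAs and a check of mitotic timing without damage, not just a high primary count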
# Meaning of the calls: active = confirmed in follow-up tests; inactive = not confirmed
# The screen tested about 23,000 reagents; below is a random part of those that have a named target and a result. Over the whole deposit, 62 (0.27%) got an active call. 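Calls come from follow-up tests whose scores are not deposited, so confirmed genes may have low counts here; counts are not normalised per plate.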 The raw values are shown without normalisation. Reagents against one gene are numbered here. A plus sign joins genes that one reagent is predicted to hit.
gene,reagent,"mitotic cells, replicate 1",outcome
Cdc6 (GeneID 38989),1,5,inactive
S6k (GeneID 38654),1,5,inactive
MAGE (GeneID 40860),1,5,inactive
Mkp3 (GeneID 40081),1,4,inactive
Mkp3 (GeneID 40081),2,6,inactive
CG3808 (GeneID 40074),1,5,inactive
CG7509 (GeneID 38579),1,3,inactive
Cfp1 + CG17440,1,13,inactive
CG16786 (GeneID 37856),1,7,inactive
Prosalpha4T2 (GeneID 37910),1,2,inactive
Prosalpha4T2 (GeneID 37910),2,9,inactive
CG42512 + CG32573,1,20,inactive
CG42512 + CG32573,2,9,inactive
CG42512 + CG32573,3,6,inactive
Ttc1 (GeneID 41993),1,10,inactive
Ttc1 (GeneID 41993),2,9,inactive
Ttc1 (GeneID 41993),3,2,inactive
Argl + CG9515,1,3,inactive
Argl + CG9515,2,3,inactive
glec (GeneID 42571),1,9,inactive
glec (GeneID 42571),2,7,inactive
CG31635 (GeneID 33928),1,8,inactive
Enoph (GeneID 40630),1,11,inactive
CG13282 (GeneID 35019),1,4,inactive
CG15169 (GeneID 35161),1,3,inactive
CG7881 (GeneID 35521),1,10,inactive
Rfk (GeneID 40936),1,7,inactive
Rfk (GeneID 40936),2,8,inactive
bam (GeneID 43038),1,7,inactive
KCNQ (GeneID 36071),1,6,inactive
KCNQ (GeneID 36071),2,6,inactive
KCNQ (GeneID 36071),3,7,inactive
Sms (GeneID 39403),1,5,inactive
rib (GeneID 44855),1,6,inactive
CG3397 (GeneID 41454),1,7,inactive
CG4960 (GeneID 43115),1,8,inactive
CG4960 (GeneID 43115),2,7,inactive
CG7214 (GeneID 34053),1,11,inactive
CG7214 (GeneID 34053),2,14,inactive
CG7214 (GeneID 34053),3,,inactive
Pex14 (GeneID 40294),1,4,inactive
Pex14 (GeneID 40294),2,4,inactive
Prp18 (GeneID 42285),1,1,inactive
Tusp (GeneID 43317),1,17,inactive
CG42362 + CG42363,1,3,inactive

5 entries from above, sorted by “mitotic cells, replicate 1”, low to high:
gene,reagent,"mitotic cells, replicate 1",outcome
CG15169 (GeneID 35161),1,3,inactive
Rfk (GeneID 40936),1,7,inactive
bam (GeneID 43038),1,7,inactive
Rfk (GeneID 40936),2,8,inactive
CG7881 (GeneID 35521),1,10,inactive
